Consider 59 molecules from PubChem BioAssay AID445 (National Center for Advancing Translational Sciences (NCATS), 2006).

Where “and” joins values, the source holds several entries; their conditions need not be identical. Equal values may be shown once. Some of the results follow. Further columns of the screen follow, without active or inactive calls. Compounds called inactive in the main read-out are mostly missing here. Words in brackets tell the shape of the fitted curve; partial curves, single points and poor fits give uncertain potencies.

The nature of the experiment: IkB Signaling. As to conditions: ABC-DLBCL IkBa-CBG/CBR dual luciferase ratio (green luciferase fused to IkBa over red control in OCI-Ly3 lymphoma cells), 4 h. An outline of the steps:
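Luminescence ratio of IκBα-fused green versus native red beetle luciferase in OCI-Ly3 cells, 4 h post-doxycycline with compound; red signal alone, scaled from basal (0%) to zero light (-100%), flagged nonspecific or cytotoxic effects.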

The mark [1] stands for this setting: measured here: control luc red channel unless noted.
Setting [2] is: measured here: IkB-luc green channel.
Setting [3] is: measured here: control luc red channel.

On to `C[C@@]12C[C@@H](O)[C@H]3[C@@H](CCC4=CC(=O)CC[C@]43C)[C@H]1CC[C@H]2C(=O)CO`, for which, under setting [1], the AC50 (commonly the concentration giving half of the maximal activity seen) was 158 nM [rising, full curve] [measured here: IkB-luc green channel] and 63.1 nM [rising, full curve] [measured here: IkB-luc green channel]. Take `COC(=O)c1cc(C)nc2c1c(=O)nc(SCc1ccccc1Cl)n2C1CC1`: the AC50 by setting is: under setting [2], 39.8 µM [falling, partial curve]; under setting [3], 39.8 µM [falling, single point]. On to `Cn1cnc(S(=O)(=O)N2CCC(C(=O)Nc3ccc(Cl)c(C(F)(F)F)c3)CC2)c1`, for which the AC50 under setting [1] was 20 µM [falling, single point]. As to `CCc1cccc(NS(=O)(=O)c2ccc3c(c2)N(CC(=O)OC)C(=O)CS3)c1`, under setting [1], the AC50 is 25.1 µM [falling, single point]. `C=CCn1c(NCc2cc(C)ccc2O)nc2ccccc21`: the AC50 under setting [1] was 25.1 µM [falling, single point].

`O=C(Cn1c(=O)n(Cc2ccc(C(=O)NCc3ccc4c(c3)OCO4)cc2)c(=O)c2ccccc21)Nc1ccccc1F`: the AC50 under setting [1] was 2.51 µM [falling, full curve, poor fit]. With `Cc1cc(C)c2cc(C#N)c(SCC(=O)NCc3ccco3)nc2c1`, under setting [1], the AC50 is 31.6 µM [rising, partial curve] [measured here: IkB-luc green channel].

Regarding `COc1ccc(-n2ccn(CC(=O)Nc3ccc(C)cc3C)c(=O)c2=O)cc1`, the AC50 under setting [1] is 20 µM [falling, single point]. Same read-out and setting: the result for `CCCCOC(=O)C1C2C=C[C@]3(CN(CCCOC)C(=O)[C@H]13)O2` (stereo partly specified) reads 0.794 µM [falling, full curve].

Turning to `CC(C)(C)c1ccc(C(=O)NC(Cc2c[nH]c3ccccc23)C(=O)OCC(=O)c2ccc(Br)cc2)cc1` (stereo unspecified), the AC50 under setting [1] was 39.8 µM [falling, partial curve, poor fit]. Take `O=C(Nc1cccc2c1CCCC2)N1CCOc2ccc(Cl)cc21`: the AC50 under setting [1] is 12.6 µM [falling, partial curve]. The same measure, in the same setting: the result for `Fc1ccc(N2CCN(c3ncnc4[nH]ncc34)CC2)cc1` reads 0.501 µM [rising, full curve, poor fit]; that for `Cc1cccc(C(C)C)c1NC(=O)c1ccc2c(c1)CCCN2S(C)(=O)=O`, 20 µM [falling, single point]; that for `CCOC(=O)c1cc(-c2ccc(C)cc2)n(CC(=O)Nc2ccc(OC)cc2OC)c1C`, 12.6 µM [rising, partial curve].

With `Cc1ccc(S(=O)(=O)N(CC(=O)NCCSc2ccc(Cl)cc2)c2cccc(Cl)c2)cc1`, the AC50 under setting [1] is 31.6 µM [falling, partial curve].

`CCc1cc(=O)[nH]c(SCc2nc(-c3ccc(C(F)(F)F)cc3)no2)n1`: the AC50 under setting [1] was 6.31 µM [falling, partial curve, poor fit]. As for `COc1ccc(N2CCN(C(c3ccc(F)cc3)c3sc4nc(-c5ccco5)nn4c3O)CC2)cc1` (stereo unspecified), the AC50 under setting [1] was 39.8 µM [falling, single point]. Take `Cn1c(C(=O)NCc2cccc(Cl)c2)cc2oc3ccccc3c21`: under setting [1], the AC50 is 7.94 µM [falling, partial curve].

Regarding `CC(=O)c1ccc(N2CCN(C(=O)CCCn3c(=O)[nH]c4ccsc4c3=O)CC2)cc1`, the concentration at half-maximal activity (AC50) under setting [1] is 0.01 µM [falling, full curve, poor fit]. As to `CCC(=C(CC)c1ccc(O)cc1)c1ccc(O)cc1`, the AC50 under setting [1] was 15.8 µM [rising, single point] [measured here: IkB-luc green channel]. The same measure, in the same setting: the result for `COc1ccc(C(CC(=O)Nc2ccc(Br)cn2)N2Cc3ccccc3C2=O)cc1` (stereo unspecified) reads 31.6 µM [falling, single point]; that for `COc1ccccc1CCNC(=O)C1CCN(c2nnc(C)c3c(C)n(-c4ccc(C)cc4)nc23)CC1`, 12.6 µM [falling, partial curve]; that for `CCOc1ccccc1NC(=O)N1CCC(c2nc3ccccc3[nH]2)CC1`, 25.1 µM [falling, partial curve].

Regarding `Cc1ccc(Cn2c(CN3CCN(c4cccc(Cl)c4)CC3)nc3c2c(=O)n(C)c(=O)n3C)cc1`, the concentration at half-maximal activity (AC50) under setting [1] was 20 µM [falling, partial curve].

Take `Cc1cc2cc(CNC(=O)c3ccc4c(c3)OCO4)ccc2[nH]1`: under setting [1], the AC50 was 12.6 µM [falling, partial curve].

Turning to `O=C(Nc1nc(-c2ccc(S(=O)(=O)N3CCCC3)cc2)cs1)c1cccs1`, under setting [1], the AC50 is 2.51 µM [falling, full curve]. On to `CC(C)c1cc(-c2nc(-c3cccc(Cl)c3)no2)n[nH]1`, for which the AC50 under setting [1] is 20 µM [falling, partial curve]. Consider `COc1ccc(NC(=O)CSc2nnc(COc3ccccc3)n2Cc2ccco2)cc1OC`, for which the AC50 under setting [1] was 10 µM [falling, partial curve].

For the molecule `CCOc1ccc(CNC(=O)CSc2c3c(nc4ccc(Cl)cc24)CCCC3)cc1`, the AC50 under setting [1] was 3.16 µM [falling, full curve, poor fit]. As for `COc1ccc(C)c2sc(N3CCN(C(=O)c4ccco4)CC3)nc12`, the AC50 under setting [1] is 3.98 µM [rising, partial curve]. As to `CCCOc1cccc(C(=O)Nc2cccc(NC(=O)c3ccc(Cl)cc3Cl)c2)c1`, the AC50 under setting [1] was 3.16 µM [falling, full curve]. On the same count and under the same terms, the result for `CCCCNc1cc(NC(C)=O)cc2cc(OC)c(OC)cc12` reads 31.6 µM [falling, single point]. Still for that read-out and setting: the result for `O=C(Cn1cc(C(=O)c2cccs2)c2ccccc21)Nc1ccc(Br)cc1` reads 7.94 µM [falling, full curve]; that for `CCN1C(=O)c2ccccc2S(=O)c2ccc(C(=O)NCc3ccc(Cl)cc3)cc21` (stereo unspecified), 12.6 µM [falling, partial curve]; that for `CCN(c1cccc(C)c1)S(=O)(=O)c1c(C)nc2sc(C)cn2c1=O`, 31.6 µM [falling, single point]. As for `COc1cccc(C(c2sc3nc(-c4ccco4)nn3c2O)N2CCN(C)CC2)c1` (stereo unspecified), under setting [1], the half-maximal activity concentration (AC50) was 39.8 µM [rising, single point].

As to `COc1ccc(Cl)cc1NC(=O)CSc1nnc(Cc2cccn2C)n1-c1ccc(F)cc1`, the concentration at half-maximal activity (AC50) under setting [1] is 15.8 µM [falling, partial curve].

Turning to `CN=c1nc(-c2ccccc2)n(-c2ccccc2)s1`, the AC50 is, setting by setting: under setting [2], 25.1 µM [falling, single point]; under setting [3], 31.6 µM [falling, partial curve]. Regarding `Cc1ccc(OCC(=O)Nc2ccc(O)c(C(=O)O)c2)cc1C`, under setting [1], the AC50 is 12.6 µM [falling, partial curve]. Still for that read-out and setting: then `Cc1nn(-c2ccc(F)cc2)c2sc(C(=O)OCC(=O)N3CCC(C)CC3)cc12`, with 0.501 µM [falling, full curve, poor fit]; and `COc1ccc(-c2nc(C#N)c(NCCc3ccccc3)o2)cc1OC`, with 39.8 µM [falling, single point]; and `Cn1cccc1C(=O)OCC(=O)c1cc2ccccc2o1`, with 5.01 µM [falling, full curve, poor fit]. Same read-out and setting: the result for `COc1ccccc1CNC(=O)C1CCN(c2nnc(C)c3c(C)n(-c4ccccc4)nc23)CC1` reads 15.8 µM [falling, single point]; that for `CC(C)CC(=O)OCc1cc(=O)n2nc(C3CCCCC3)sc2n1`, 3.16 µM [falling, single point]; that for `Cc1ccc(NC(=O)CN2C(=O)CC(c3ccc(C)c(C)c3)=Nc3ccccc32)cc1`, 15.8 µM [falling, partial curve]. With `O=C(c1cccc(C(=O)N2CCN(c3ccccc3)CC2)c1)N1CCN(c2ccccc2)CC1`, the AC50 under setting [1] is 15.8 µM [falling, partial curve]. For the molecule `Cc1cc(C(=O)Nc2nc3c(s2)CCCC3)no1`, the concentration at half-maximal activity (AC50) under setting [1] was 12.6 µM [falling, partial curve]. As to `Cc1ccc2nc(COc3ccccc3NC(=O)c3ccccc3C)cc(=O)n2c1`, under setting [1], the AC50 was 6.31 µM [falling, partial curve]. The same measure, in the same setting: then `COc1ccc(-c2nnc(SCC(=O)Nc3cc(OC)ccc3OC)nc2-c2ccc(OC)cc2)cc1`, with 39.8 µM [falling, single point]. Same read-out and setting: then `COc1ccccc1CN(Cc1cc2cc(C)ccc2[nH]c1=O)Cc1nnnn1Cc1ccco1`, with 1 µM [falling, full curve]. Take `Cc1cccc(CCNC(=O)c2ccc3c(c2)nc2n3CCC(C)C2)c1` (stereo unspecified): under setting [1], the AC50 was 0.316 µM [falling, single point]. Still for that read-out and setting: then `COc1ccc(OC)c(NC(=O)c2ccc3c(SCC(=O)O)c4c(nc3c2)CCCC4)c1`, with 15.8 µM [falling, single point]; and `Cc1cccc(-c2noc(-c3ccc(NCc4ccco4)c([N+](=O)[O-])c3)n2)c1`, with 7.94 µM [falling, full curve]; and `CCCCCCCCCCCCCCCC(=O)NC[C@@H](COP(=O)([O-])OCC[N+](C)(C)C)OCC`, with 6.31 µM [falling, partial curve, poor fit] [measured here: IkB-luc green channel].

As to `COc1cc(SC)ccc1C(=O)Nc1ccc2c(c1)OCCO2`, the AC50 under setting [1] is 25.1 µM [falling, partial curve]. On the same count and under the same terms, then `COc1ccc(-n2c(/C=C/c3cccc(C(F)(F)F)c3)nc3ccccc3c2=O)cc1Cl`, with 39.8 µM [falling, partial curve].

Turning to `Cn1cc(S(=O)(=O)N2CCCCCC2)cc1C(=O)N1CCN(c2cccc(C(F)(F)F)c2)CC1`, under setting [1], the AC50 was 12.6 µM [falling, partial curve, poor fit]. Turning to `N#Cc1ccccc1NC(=O)C(=O)NCCc1csc(-c2ccc(C(F)(F)F)cc2)n1`, under setting [1], the AC50 was 2.51 µM [rising, partial curve].

Turning to `CN(C)c1ccc(NC(=O)c2ccc(COc3cccc(Cl)c3)o2)cc1`, the AC50 under setting [1] was 15.8 µM [falling, partial curve].
